Test results as given in paper PMC8875441.
These are yes or no findings as the source states them, for the method shown. Binding seen in cells or lysates may run through a third protein. Some entries that bind do so weakly or less than the wild type. Tags and fused reporters may be left off the sequences shown.

By UniProt entry, the sequences of proteins in these tests, tags left out.
UniProt Q61879: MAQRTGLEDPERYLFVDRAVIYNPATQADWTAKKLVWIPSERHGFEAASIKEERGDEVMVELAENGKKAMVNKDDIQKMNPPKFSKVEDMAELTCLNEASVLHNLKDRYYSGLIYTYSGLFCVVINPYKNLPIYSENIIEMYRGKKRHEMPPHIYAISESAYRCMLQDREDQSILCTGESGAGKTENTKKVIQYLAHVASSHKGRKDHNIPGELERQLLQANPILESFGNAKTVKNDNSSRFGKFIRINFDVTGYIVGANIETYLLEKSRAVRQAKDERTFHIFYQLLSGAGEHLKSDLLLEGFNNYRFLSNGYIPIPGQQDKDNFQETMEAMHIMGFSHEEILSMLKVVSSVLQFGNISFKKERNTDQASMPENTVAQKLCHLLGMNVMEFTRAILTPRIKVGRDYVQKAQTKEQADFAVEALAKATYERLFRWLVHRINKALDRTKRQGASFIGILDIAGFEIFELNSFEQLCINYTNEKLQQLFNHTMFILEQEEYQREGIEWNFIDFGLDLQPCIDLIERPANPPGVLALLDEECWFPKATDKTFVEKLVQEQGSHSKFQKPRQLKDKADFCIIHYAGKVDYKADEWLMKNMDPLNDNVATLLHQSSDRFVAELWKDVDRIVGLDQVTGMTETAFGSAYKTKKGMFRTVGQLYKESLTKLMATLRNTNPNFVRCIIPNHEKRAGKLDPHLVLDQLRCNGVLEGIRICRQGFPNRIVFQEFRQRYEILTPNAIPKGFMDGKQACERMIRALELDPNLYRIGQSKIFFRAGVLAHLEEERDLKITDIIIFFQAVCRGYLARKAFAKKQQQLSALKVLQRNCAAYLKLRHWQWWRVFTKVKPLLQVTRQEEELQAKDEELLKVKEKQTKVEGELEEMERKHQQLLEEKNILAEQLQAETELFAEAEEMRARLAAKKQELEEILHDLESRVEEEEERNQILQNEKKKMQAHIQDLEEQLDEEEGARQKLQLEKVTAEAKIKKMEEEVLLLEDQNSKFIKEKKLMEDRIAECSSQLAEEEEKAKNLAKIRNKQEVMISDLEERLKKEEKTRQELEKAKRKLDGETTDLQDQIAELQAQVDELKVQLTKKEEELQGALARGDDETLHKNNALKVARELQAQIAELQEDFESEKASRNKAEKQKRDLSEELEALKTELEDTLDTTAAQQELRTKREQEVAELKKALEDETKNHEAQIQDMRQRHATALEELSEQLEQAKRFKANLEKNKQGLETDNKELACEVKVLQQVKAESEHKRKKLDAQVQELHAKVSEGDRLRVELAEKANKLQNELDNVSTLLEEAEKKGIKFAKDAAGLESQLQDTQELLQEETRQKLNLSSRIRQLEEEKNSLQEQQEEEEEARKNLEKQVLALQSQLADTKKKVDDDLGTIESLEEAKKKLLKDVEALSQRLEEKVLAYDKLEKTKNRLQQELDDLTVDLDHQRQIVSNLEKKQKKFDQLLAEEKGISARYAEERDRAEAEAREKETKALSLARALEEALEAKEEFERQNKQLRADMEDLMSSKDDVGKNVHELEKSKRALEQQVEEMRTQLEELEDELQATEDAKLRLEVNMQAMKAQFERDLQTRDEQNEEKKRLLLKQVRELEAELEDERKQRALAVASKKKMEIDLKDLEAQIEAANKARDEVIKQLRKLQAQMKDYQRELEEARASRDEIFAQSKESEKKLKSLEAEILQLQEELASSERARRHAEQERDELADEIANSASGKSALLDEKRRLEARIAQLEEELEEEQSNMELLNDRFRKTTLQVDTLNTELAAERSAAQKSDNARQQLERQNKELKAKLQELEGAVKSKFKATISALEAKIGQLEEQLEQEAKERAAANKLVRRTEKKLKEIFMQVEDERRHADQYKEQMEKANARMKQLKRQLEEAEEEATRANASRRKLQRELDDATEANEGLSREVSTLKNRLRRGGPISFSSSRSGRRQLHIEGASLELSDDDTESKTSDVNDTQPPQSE

Tests used:
[1] = biological target: T1, insulin-dependent glucose transporter 4 (GLUT4) (mouse (endogenous in C57bl/6J visceral adipose tissue and in 3T3-L1)) (UniProt P14142); assay: co-IP; differentiated 3T3-L1 whole-cell lysates (200 µg; 50 mM Tris pH 7.5, 150 mM NaCl, 1 mM EDTA, 1% NP-40); immunoprecipitation with anti-GLUT4 antibody and Protein A/G Plus Agarose overnight; western blot for MYH10; also done +/- 30 min insulin induction (more complex after insulin) and with or without 50 µM PKCζ pseudo-substrate inhibitor (fewer complexes with inhibitor)
T1 sequence: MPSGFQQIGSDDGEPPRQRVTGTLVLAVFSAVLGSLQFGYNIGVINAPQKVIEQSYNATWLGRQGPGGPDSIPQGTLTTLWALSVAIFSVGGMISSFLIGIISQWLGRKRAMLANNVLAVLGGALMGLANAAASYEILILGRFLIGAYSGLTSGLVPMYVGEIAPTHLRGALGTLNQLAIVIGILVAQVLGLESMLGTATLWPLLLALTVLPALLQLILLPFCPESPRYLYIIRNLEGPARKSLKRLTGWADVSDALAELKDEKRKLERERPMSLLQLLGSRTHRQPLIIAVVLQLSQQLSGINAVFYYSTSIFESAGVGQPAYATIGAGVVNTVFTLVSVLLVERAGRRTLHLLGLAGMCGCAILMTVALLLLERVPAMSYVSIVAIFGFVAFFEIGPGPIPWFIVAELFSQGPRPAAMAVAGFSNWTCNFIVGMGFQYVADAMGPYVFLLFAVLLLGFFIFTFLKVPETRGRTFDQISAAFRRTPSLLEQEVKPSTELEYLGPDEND

[2] = biological target: T1, insulin-dependent glucose transporter 4 (GLUT4) (mouse (endogenous in C57bl/6J visceral adipose tissue and in 3T3-L1)); assay: co-IP; murine visceral adipose tissue preparations; immunoprecipitation with anti-GLUT4 antibody and Protein A/G Plus Agarose overnight; western blot for MYH10

binding [1]: binds
binding [2]: binds
Substance: non-muscle myosin 10 (MYH10) (from UniProt Q61879 1-1976)
